From article PMC10516600

Tests used:
[1] = target: T1, exogenous CRB3b (CRB3-GFP) stably expressed in MCF10A cells (human) (UniProt Q9BUF7); test: co-IP; MCF10A cells expressing exogenous CRB3b (CRB3-GFP); lysate in NP40 buffer, Dynabeads protein G kit, immunoblot; baits exogenous CRB3b or Rab11
T1 sequence: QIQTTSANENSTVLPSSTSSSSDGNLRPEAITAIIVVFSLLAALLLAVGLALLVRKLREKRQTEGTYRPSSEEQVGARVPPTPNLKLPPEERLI

[2] = target: T2, CRB3 (endogenous, MCF10A cells) (human (endogenous in MCF10A)) (UniProt Q9BUF7); test: co-IP; endogenous proteins in MCF10A lysate (NP40 buffer), Dynabeads protein G kit, immunoblot; baits CRB3, Rab11 or GCP6; control shRNA and CRB3 knockdown cells
T2 sequence: T1 sequence

[3] = target: Rab11 (endogenous, MCF10A cells) (human (endogenous in MCF10A)); test: as above
[4] = target: Rab11 (endogenous, MCF10A cells) (human (endogenous in MCF10A)); test: co-IP; MCF10A cells expressing exogenous CRB3b (CRB3-GFP); lysate in NP40 buffer, Dynabeads protein G kit, immunoblot; baits exogenous CRB3b or Rab11

binding [1]: binds
binding [2]: binds
Molecule: Rab11 (endogenous, MCF10A cells) (human (endogenous in MCF10A))

binding [3]: binds
B1: CRB3 (endogenous, MCF10A cells) (protein, UniProt Q9BUF7 27-120)
chain: T1 sequence

binding [4]: binds
B2: exogenous CRB3b (CRB3-GFP) stably expressed in MCF10A cells (protein, UniProt Q9BUF7 27-120)
chain: T1 sequence

These are yes or no findings as the source states them, for the method shown. Binding seen in cells or lysates may run through a third protein. Binding can be weak; no strength is given. For some of these results: Where a sequence is shown, tags or fusion partners need not be part of it. One block for each molecule: values may come before it.
